Reference: paper PMC9772883

The chains behind the UniProt entries cited, without tags or fusion partners. Where a name states a change or a piece, a line headed by the entry shows the natural chain unless it says otherwise.
UniProt Q8I2I3: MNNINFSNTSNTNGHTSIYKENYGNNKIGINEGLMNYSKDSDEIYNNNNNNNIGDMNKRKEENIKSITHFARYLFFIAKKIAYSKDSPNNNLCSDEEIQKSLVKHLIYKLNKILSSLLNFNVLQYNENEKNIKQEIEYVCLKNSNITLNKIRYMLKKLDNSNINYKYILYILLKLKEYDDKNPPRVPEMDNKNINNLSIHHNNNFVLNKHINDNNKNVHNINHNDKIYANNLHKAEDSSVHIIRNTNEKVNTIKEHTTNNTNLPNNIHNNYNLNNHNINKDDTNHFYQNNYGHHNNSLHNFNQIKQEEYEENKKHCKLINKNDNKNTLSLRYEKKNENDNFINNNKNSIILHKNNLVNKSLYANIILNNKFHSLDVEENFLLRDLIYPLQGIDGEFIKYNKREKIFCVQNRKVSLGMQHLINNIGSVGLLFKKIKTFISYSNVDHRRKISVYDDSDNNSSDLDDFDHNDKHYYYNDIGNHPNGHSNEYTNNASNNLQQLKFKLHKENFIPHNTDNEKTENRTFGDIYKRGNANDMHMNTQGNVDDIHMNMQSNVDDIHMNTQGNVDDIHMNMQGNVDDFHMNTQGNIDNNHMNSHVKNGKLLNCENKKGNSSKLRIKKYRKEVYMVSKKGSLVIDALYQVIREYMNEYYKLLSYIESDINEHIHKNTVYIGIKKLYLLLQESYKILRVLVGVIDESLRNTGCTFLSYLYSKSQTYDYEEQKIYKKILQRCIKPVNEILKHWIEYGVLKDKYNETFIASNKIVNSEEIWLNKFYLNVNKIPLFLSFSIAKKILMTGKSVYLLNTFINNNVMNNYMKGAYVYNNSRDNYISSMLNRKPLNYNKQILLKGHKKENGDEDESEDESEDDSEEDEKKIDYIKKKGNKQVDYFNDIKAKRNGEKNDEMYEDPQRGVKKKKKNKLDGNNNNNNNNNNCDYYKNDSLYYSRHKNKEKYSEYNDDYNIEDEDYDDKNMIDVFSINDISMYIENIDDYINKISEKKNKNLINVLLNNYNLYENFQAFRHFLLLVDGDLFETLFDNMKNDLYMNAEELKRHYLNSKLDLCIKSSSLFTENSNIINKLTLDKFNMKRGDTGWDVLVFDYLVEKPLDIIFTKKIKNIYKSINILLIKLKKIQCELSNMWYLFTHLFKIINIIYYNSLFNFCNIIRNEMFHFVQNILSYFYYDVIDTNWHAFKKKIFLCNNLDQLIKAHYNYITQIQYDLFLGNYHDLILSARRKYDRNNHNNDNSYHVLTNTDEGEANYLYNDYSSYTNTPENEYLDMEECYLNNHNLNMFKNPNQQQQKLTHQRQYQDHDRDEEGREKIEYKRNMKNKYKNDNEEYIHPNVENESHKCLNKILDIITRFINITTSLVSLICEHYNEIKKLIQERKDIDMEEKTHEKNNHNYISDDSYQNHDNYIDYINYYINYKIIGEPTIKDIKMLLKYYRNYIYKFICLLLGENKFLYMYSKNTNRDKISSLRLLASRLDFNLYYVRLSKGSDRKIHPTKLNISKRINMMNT
UniProt Q8IJX5: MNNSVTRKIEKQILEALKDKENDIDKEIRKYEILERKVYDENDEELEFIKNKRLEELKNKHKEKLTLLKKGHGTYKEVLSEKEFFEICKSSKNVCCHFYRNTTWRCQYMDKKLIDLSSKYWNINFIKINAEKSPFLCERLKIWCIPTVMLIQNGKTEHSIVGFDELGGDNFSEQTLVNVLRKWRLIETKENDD
UniProt Q8ILW9: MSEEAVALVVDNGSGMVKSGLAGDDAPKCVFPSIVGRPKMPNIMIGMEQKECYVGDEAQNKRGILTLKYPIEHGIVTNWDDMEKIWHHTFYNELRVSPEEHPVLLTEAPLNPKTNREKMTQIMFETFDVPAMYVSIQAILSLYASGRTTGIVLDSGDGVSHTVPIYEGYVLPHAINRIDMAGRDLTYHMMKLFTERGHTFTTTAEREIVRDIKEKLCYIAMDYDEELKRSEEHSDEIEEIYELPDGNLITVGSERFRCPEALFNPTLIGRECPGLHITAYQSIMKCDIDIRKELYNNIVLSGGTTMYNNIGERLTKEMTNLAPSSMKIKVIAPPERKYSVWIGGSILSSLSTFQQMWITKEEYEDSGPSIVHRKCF
UniProt Q8ILZ2: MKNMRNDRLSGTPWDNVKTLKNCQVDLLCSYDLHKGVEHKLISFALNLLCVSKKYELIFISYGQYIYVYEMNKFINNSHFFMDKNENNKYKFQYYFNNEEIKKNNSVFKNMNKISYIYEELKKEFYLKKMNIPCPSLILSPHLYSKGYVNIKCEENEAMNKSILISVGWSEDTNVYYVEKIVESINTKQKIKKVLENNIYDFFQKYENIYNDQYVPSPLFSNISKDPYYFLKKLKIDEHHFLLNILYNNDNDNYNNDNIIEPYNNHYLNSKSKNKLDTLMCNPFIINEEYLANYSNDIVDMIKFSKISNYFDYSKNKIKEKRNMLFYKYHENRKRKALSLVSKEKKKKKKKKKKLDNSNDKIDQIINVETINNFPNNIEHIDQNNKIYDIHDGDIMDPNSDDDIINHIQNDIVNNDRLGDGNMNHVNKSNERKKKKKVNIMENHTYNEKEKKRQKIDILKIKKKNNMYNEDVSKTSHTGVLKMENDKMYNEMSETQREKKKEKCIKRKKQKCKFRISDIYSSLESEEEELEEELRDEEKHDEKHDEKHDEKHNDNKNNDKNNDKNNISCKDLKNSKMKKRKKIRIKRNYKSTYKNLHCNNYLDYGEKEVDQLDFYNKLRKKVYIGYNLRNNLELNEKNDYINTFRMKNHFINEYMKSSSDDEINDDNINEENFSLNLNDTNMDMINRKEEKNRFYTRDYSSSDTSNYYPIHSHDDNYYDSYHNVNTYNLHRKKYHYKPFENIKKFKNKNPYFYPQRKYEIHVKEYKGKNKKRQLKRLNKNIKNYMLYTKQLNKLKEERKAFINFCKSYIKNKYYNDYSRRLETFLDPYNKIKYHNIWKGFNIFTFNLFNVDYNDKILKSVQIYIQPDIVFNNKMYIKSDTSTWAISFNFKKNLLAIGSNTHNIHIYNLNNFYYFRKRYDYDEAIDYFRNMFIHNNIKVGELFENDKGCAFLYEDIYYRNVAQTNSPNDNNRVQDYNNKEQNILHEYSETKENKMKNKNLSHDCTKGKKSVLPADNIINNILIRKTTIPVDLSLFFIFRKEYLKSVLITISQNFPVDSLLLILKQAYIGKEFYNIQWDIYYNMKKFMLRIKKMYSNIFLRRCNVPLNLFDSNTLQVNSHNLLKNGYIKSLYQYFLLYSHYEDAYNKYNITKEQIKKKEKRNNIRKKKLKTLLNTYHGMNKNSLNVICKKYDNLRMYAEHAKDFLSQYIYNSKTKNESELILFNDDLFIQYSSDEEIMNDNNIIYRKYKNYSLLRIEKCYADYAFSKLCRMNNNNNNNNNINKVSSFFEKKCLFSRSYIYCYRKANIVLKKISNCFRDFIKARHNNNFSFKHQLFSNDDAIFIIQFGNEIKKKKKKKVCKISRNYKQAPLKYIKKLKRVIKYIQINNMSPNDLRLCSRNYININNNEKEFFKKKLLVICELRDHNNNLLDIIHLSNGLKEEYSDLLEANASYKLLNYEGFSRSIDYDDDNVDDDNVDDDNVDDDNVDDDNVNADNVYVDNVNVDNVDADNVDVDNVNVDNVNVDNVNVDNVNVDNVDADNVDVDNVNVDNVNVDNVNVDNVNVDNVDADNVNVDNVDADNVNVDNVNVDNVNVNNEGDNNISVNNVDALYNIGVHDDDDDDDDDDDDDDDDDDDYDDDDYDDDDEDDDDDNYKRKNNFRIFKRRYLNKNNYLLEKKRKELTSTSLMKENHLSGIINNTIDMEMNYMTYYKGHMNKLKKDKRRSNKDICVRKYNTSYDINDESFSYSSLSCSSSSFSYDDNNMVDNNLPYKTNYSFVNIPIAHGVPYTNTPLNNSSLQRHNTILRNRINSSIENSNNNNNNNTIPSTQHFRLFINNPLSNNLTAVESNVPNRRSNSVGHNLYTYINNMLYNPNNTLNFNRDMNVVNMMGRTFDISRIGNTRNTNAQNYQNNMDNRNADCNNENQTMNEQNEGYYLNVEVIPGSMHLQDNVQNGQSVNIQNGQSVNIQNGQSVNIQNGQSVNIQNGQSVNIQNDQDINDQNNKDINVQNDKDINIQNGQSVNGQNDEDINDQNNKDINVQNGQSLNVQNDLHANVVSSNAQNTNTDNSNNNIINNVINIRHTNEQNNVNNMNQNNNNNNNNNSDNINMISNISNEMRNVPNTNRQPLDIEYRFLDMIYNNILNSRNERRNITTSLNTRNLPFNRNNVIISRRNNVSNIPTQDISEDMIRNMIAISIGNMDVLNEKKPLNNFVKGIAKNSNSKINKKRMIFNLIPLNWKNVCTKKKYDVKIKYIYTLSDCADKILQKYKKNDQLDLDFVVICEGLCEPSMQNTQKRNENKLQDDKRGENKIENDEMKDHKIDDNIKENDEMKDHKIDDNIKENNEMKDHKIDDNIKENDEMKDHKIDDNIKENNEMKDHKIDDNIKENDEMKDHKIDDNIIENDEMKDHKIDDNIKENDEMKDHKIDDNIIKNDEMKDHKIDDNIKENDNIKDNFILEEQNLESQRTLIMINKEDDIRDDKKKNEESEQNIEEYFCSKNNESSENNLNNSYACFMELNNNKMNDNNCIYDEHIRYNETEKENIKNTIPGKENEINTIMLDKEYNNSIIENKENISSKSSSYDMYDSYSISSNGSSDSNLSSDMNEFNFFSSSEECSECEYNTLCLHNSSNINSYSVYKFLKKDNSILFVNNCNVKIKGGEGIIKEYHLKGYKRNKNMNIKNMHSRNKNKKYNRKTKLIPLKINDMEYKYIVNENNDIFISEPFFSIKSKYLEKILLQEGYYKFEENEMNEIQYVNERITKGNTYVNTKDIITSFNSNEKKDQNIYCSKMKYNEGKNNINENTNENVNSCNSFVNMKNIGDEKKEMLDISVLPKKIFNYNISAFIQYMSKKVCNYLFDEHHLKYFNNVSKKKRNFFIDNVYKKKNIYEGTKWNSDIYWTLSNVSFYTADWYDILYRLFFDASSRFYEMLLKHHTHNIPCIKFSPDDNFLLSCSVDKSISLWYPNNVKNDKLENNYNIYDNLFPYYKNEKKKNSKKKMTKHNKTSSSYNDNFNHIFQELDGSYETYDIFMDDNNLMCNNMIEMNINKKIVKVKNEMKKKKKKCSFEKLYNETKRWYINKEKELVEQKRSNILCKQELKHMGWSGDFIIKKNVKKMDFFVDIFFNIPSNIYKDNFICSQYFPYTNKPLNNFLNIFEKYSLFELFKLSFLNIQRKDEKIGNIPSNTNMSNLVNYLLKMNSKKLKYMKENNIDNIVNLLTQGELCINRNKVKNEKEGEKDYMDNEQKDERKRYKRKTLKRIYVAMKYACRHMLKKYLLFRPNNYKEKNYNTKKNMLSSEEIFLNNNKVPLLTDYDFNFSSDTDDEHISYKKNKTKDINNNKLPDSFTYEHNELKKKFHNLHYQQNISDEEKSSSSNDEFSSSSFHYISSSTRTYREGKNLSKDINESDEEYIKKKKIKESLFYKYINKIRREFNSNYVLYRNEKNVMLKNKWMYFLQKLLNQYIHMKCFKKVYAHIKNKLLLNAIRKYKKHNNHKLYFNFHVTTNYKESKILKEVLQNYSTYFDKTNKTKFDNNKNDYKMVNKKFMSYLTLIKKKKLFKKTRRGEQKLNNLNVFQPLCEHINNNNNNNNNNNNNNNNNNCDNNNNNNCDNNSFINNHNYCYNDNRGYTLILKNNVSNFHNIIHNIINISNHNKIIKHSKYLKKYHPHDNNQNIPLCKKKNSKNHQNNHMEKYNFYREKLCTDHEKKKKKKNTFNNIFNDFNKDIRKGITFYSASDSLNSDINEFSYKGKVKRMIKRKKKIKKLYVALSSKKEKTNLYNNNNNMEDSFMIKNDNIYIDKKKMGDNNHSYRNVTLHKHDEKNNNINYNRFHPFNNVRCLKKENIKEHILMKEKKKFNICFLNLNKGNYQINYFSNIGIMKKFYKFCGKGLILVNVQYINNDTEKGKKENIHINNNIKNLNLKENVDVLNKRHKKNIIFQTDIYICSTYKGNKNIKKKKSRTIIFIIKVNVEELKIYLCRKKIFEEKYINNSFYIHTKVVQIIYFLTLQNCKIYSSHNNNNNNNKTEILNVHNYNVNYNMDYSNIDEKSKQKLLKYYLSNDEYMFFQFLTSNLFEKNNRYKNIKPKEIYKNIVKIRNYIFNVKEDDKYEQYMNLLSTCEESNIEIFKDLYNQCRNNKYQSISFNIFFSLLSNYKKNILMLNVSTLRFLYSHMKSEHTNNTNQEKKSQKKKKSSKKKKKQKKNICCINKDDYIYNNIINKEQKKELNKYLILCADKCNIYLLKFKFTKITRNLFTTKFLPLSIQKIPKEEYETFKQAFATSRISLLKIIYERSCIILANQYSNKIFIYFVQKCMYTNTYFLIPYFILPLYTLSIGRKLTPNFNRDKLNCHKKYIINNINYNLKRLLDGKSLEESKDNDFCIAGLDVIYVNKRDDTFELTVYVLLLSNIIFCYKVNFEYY

B1: activator of Hsp90 ATPase (protein, UniProt O97244 1-349)
chain: MSGSVWNSNSWHWEERNYNKWAESYIKYNLSNLKIEKEDLTIYFDNLQVSGNACVSIRKGKQINSFEYIIKFEWLYSKKKEGKDYFGGSVEIPDFSTFSLEENDYAINIERTDESENLRFIYDSILKKEGKEKIKECLKNFQEDLLKHDKNESNKELKIKEEEKIKLENIKTCNEKKTEEENKSNQNINNNINDEKKEGSVWNINNYHWEEKCLTKWAIEELQNIFNKSIIELSNNIFLEFFSCDVEGEASSSLRKKKKILMYDLKITSEWKAYQKNKNQQIEIESKGHVSINDILSDFSSDDNTKYSYYFIFDNKTDEYNQINDVIKLEGPNKINQIIDDFILKMREK
B2: Tubulin γ-chain (protein, UniProt Q8IAN7 1-452)
chain: MPREIITLQCGQCGNQIGVEFWKQLCNEHNIDQEGILKNNNFLNEDRKDIFFYQADDEHFIPRALLFDLEPRVINSIQTSEYRNLYNPENMFISKEGGGAGNNWGCGYSQGHKVEEEIIDMIDREVDNSDNLEGFILSHSIAGGTGSGMGSYLLELLNDNYSKKMIQTFSVFPLLTNESSDVVVQPYNSILTLKRLILSTDSVVVIDNTSLNRIFVERLKLNNPTFQQTNTIISNVMSASTTTLRYPGSMNNDMISLISSLIINPKCHFLITSYTPITIDKHISNVQKTTVLDVMKRLLHTKNIMVSAPVRRGMYISILNIIRGETDPTQVHKGLQRIRDRKLVNFIKWNPASIQVTLAKQSPHVVSQHKVCGLMMANHTSISTLFERCVTQFDRLYKRRAFLENYKKESMFSSADGQGNFEEMESSKEITQNLIDEYKSAERDDYFTNTYI

The molecules below were run against CCT8-FLAG (P. falciparum CCT8/θ subunit with C-terminal 3x-FLAG tag) (P. falciparum) (UniProt O96220) (assay: affinity purification with mass spectrometry; lysate of the CCT-theta-FLAG parasite line (1 L culture) on 200 µl anti-FLAG resin overnight at 4°C; wash 30 mM HEPES pH 8.0, 300 mM NaCl, 2.5% glycerol, 2 mM EDTA, 4 mM DTT; bead-bound fraction by Tandem Mass Tag mass spectrometry; hits more than two-fold over the RNAP2-FLAG control pull-down).

Row | binding | Molecule
1 | binds | CCT5 (from UniProt O97282)
2 | binds | WD40 mRNA splicing (Q8IJZ5) (from UniProt Q8IJZ5)
3 | binds | Hsp70-Hsp90 organising protein (from UniProt Q8ILC1 1-564)
4 | binds | Tubulin γ-chain complex (from UniProt Q8I2I3)
5 | binds | Tubulin α-chain Chr 4 (from UniProt Q8IFP3 1-450)
6 | binds | WD40 mRNA splicing (Q8IL37) (from UniProt Q8IL37)
7 | binds | WD40 mRNA splicing (C0H5G7) (from UniProt C0H5G7)
8 | binds | Actin-related (from UniProt Q8IBQ9)
9 | binds | WD40 Coatomer α (from UniProt C6KSR5)
10 | binds | Phosducin-like 2 (from UniProt Q8IJX5)
11 | binds | WD40 CAF1 (from UniProt Q8IE52)
12 | binds | PfEF2 (from UniProt Q8IKW5)
13 | binds | initiation factor 2α (eIF2α) (from UniProt Q8IBH7)
14 | binds | WD40 NOP10 (from UniProt Q8IAL3)
15 | binds | ATG7 related protein (Q8IC20) (from UniProt Q8IC20)
16 | binds | WD40 CAF1 complex (from UniProt Q8I5D0)
17 | binds | Hsp40A chaperone (from UniProt Q8IL88)
18 | binds | Actin II (from UniProt Q8ILW9 1-376)
19 | binds | WD40 Fe-S assembly (from UniProt Q8I5V5)
20 | binds | WD40 dsDNA break (from UniProt Q8IJ73)
21 | binds | Tubulin α-chain Chr 9 (from UniProt Q6ZLZ9 1-453)
22 | binds | CCT4 (from UniProt C0H5I7)
23 | binds | CCT2 (from UniProt O97247)
24 | binds | WD40 Coatomer β (from UniProt Q8I390)
25 | binds | Actin-like (from UniProt Q8I450)
26 | binds | Actin I (from UniProt Q8I4X0 1-376)
27 | binds | WD40 mRNA splicing (O97292) (from UniProt O97292)
28 | binds | WD40 U3snoRNA (from UniProt Q8ILZ2)
29 | binds | B1
30 | binds | B2

Row | Molecule | binding
31 | WD40 novel (Q8IKN9) (from UniProt Q8IKN9) | binds
32 | component of the diphthamide complex (from UniProt A0A143ZY29) | binds
33 | WD40 novel (Q8IHX6) (from UniProt Q8IHX6) | binds

These are yes or no findings as the source states them, for the method shown. In cells and extracts the contact can be indirect. These calls come from enrichment with a bait or labelling near it, and not all partners need be listed.
